Test results as given in patent publication EP4679096A1, “BIOMARKERS AND METHOD FOR ESTIMATING BRAIN NEURODEGENERATIVE CONDITION” (SHIMADZU CORPORATION, priority 2023, dated 2024).

Test: Ng peptides in plasma by affinity purification (anti-Ng antibody beads) and MALDI-TOF MS; comparison of CN, MCI, AD_Aβ+ and nonAD_Aβ- groups
Parameters: species or system human
Description: At the National Center for Geriatrics and Gerontology, 161 plasma samples and clinical diagnostic information such as amyloid PET findings, FDG-PET findings, MRI findings and MMSE findings (Mini Mental State Examination) were acquired.
The subject is a case diagnosed with normal cognitive function (CN), mild cognitive impairment (MCI), Alzheimer's disease (AD), and dementia other than Alzheimer's disease (nonAD). A group of AD and nonAD was defined as a group of dementia.
PiB-PET images of the brains of the subjects were acquired in order to determine whether AB accumulation in the brain was positive or negative. A subject in which the accumulation amount of PiB in the cerebral cortex was larger than or equal to the accumulation amount of PiB in the non-specific white matter by visual interpretation evaluation by a nuclear medicine specialist was determined to be positive. A subject who had only non-specific accumulation in the white matter and hardly accumulated in the cortex was determined to be negative. The PiB accumulation average value (SUVR: Standard Uptake Value Ratio) quantified the PiB accumulation in the cortex, and the accumulation ratio of the cerebrum was determined on the basis of the cerebellum. […]

Ng7-55: neurogranin fragment peptide, No. 26 (NACSKPDDDILDIPLDDPGANAAAAKIQASFRGHMARKKIKSGERGRKG; UniProt Q92686 7-55, looked up, fragment)
Median for each group nonAD (plasma NI, corrected as in Experimental Example 1, nonAD_Aβ- group per text): 0.140
Difference in median for each group CN vs AD_Aβ + (ratio of medians (times CN), Experimental Example 1 correction): 1.11
